Data reported in article PMC7608589, “Divergent architecture of the heterotrimeric NatC complex explains N-terminal acetylation of cognate substrates” (Nature Communications, 2020).
These are yes or no findings as the source states them, for the method shown. For some assays here: In cells and extracts the contact can be indirect. Some entries that bind do so weakly or less than the wild type. For some assays here: Tags and fused reporters may be left off the sequences shown.

Assays:
[1] = molecular target: T1, His6-tagged full-length (FL) Naa35 (residues 1–733) (S. cerevisiae) (UniProt Q02197); test: pull-down; NatC subunits co-expressed in E. coli; complexes affinity-purified via the Naa35 subunit (FL, ΔN17 or ΔN44); SDS–PAGE
T1 sequence: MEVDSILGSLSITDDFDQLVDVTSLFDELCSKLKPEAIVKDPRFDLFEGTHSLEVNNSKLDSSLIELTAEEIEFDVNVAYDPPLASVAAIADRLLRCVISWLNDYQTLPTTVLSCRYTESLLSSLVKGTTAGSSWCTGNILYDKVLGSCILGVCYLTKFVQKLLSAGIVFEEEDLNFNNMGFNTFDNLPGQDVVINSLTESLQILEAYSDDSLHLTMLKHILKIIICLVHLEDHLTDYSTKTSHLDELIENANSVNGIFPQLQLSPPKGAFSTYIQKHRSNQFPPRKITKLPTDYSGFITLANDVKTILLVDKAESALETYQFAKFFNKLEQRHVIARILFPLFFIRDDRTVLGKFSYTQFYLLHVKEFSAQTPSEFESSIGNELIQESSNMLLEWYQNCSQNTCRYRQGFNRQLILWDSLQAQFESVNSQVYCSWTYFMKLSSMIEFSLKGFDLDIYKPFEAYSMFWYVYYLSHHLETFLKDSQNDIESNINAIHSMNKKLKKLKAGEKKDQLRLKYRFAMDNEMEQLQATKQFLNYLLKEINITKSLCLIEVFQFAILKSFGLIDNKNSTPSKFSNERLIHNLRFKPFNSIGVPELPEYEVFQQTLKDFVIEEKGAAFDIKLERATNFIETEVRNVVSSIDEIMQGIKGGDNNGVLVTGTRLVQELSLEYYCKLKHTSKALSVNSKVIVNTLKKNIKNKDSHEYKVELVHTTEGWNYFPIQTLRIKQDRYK

[2] = molecular target: T2, Naa35ΔN17 (residues 18–733) (S. cerevisiae) (UniProt Q02197); test: as above
T2 sequence: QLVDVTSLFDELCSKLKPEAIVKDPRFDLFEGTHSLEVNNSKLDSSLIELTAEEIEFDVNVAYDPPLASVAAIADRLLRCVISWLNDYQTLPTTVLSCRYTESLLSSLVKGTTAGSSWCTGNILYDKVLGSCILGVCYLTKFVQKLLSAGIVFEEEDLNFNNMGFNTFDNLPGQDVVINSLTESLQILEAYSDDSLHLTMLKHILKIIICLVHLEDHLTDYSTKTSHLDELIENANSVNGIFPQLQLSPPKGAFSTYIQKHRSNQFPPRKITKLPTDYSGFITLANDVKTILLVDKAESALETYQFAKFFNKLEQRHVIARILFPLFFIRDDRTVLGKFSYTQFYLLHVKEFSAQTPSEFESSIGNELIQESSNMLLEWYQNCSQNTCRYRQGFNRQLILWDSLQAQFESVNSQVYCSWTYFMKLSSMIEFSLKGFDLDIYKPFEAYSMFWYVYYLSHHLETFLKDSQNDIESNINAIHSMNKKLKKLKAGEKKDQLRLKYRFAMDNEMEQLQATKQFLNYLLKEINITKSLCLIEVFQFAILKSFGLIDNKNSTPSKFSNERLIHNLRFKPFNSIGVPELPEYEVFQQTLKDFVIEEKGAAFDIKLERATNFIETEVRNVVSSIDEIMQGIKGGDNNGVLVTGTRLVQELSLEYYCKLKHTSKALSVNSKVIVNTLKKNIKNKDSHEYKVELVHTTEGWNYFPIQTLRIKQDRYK

[3] = molecular target: T3, Naa30ΔC17 (residues 1–159), catalytic subunit of S. cerevisiae NatC (S. cerevisiae) (UniProt Q03503); test: crystal structure; NatC (Naa30ΔC17, Naa35, Naa38ΔC11) co-expressed in E. coli and purified as a complex; apo (SeMet) and CoA-bound (1:3); sitting drops, 14.5–16.5% PEG 4000, 150 mM ammonium iodide, 100 mM sodium citrate pH 6.1–6.3; both purified
T3 sequence: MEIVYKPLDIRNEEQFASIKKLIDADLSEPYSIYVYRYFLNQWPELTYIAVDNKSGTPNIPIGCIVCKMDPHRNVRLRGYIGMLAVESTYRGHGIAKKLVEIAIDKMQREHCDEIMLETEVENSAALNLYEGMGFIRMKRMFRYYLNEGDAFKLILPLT

[4] = molecular target: T4, full-length Naa35 (residues 1–733), large auxiliary subunit of S. cerevisiae NatC, His6-tag cleaved (S. cerevisiae) (UniProt Q02197); test: as above
T4 sequence: T1 sequence

[5] = molecular target: T1, His6-tagged full-length (FL) Naa35 (residues 1–733) (S. cerevisiae); test: pull-down; Naa30ΔC17 and full-length Naa35 co-expressed in E. coli without Naa38 (ΔNaa38); purified by the same protocol as NatC (Ni2+-sepharose, HRV 3C cleavage, second Ni2+ column, Superdex200)

Measured: binding

B1: Naa38ΔC11 (residues 1–77), small auxiliary subunit of S. cerevisiae NatC (domain or fragment, UniProt P23059 1-77)
chain: MDILKLSDFIGNTLIVSLTEDRILVGSLVAVDAQMNLLLDHVEERMGSSSRMMGLVSVPRRSVKTIMIDKPVLQELT
binds: [1] | [2] | [3] | [4]

B2: Naa30ΔC17 (residues 1–159), catalytic subunit of S. cerevisiae NatC (domain or fragment, UniProt Q03503 1-159)
chain: T3 sequence
binds: [1] | [2] | [5] | [4]
